# Test results published in PubChem BioAssay AID493014 (National Center for Advancing Translational Sciences (NCATS), 2011).
# The other results are listed elsewhere or left out. Further columns of the screen follow, without active or inactive calls. Compounds called inactive in the main read-out are mostly missing here. Potencies come from curve fits of mixed quality, noted in brackets.
# Experiment: qHTS Assay to Find Inhibitors of Chronic Active B-Cell Receptor Signaling
# Conditions: ABC-DLBCL IkBa-CBG/CBR reporter, luminescence ratio (green luciferase fused to IkBa over red control in TMD8 lymphoma cells), 4 h
# How it was run: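 Doxycycline induced both beetle luciferases in TMD8 lymphoma cells; IKK-driven degradation limits the IkappaBalpha-fused green signal, while red luminescence normalises for cell number and nonspecific effects. Compounds tested up to 46 uM, 4 hrs.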
# [1] = measured here: CBR red luminescence, cell number
# [2] = measured here: IkBa-CBG green luminescence
SMILES,AC50 [1],AC50 [2]
CSc1ccc(/C=N/NC(=O)c2ccc(O)cc2)cc1,"0.0517 µM [falling, full curve]",
CN(C)CCC(=O)N1c2ccccc2Sc2ccc(Cl)cc21,"15.8 µM [falling, partial curve, poor fit]",
O=C(CCC1CCCN(C(=O)c2ccoc2)C1)NCc1ccccc1F (stereo not drawn),"20 µM [rising, partial curve, poor fit]",
Cc1nc2ccccc2c2oc(C(=O)N3CCN(C(=O)c4ccco4)CC3)cc12,"32.6 µM [falling, single point]",
O=C1CCCC/C1=C/Nc1ccc(C(=O)O)cc1,"1.03 µM [falling, full curve]",
CCCCn1c(N)c(N(CCC(C)C)C(=O)Cc2ccc(S(=O)(=O)N3CCOCC3)s2)c(=O)[nH]c1=O,"1.46 µM [rising, full curve, poor fit]",
N#C/C(=C\Nc1ccccc1O)c1nc2ccccc2o1,"32.6 µM [falling, single point]",
O=C(/C=C/c1ccco1)Nc1ccccn1,"6.51 µM [falling, partial curve]",
COc1cccc(/C=N/Nc2nn3cnnc3c3ccccc23)c1,"0.731 µM [falling, partial curve]",
CN1CCc2c(sc3nc(SCC(N)=O)n(-c4ccccc4)c(=O)c23)C1,"0.146 µM [rising, full curve, poor fit]",
CC(=O)Oc1ccccc1C1=NN(C(=O)/C=C/c2ccccc2)C(c2ccccc2)C1 (stereo not drawn),"14.6 µM [rising, single point]",
CCOC(=O)c1sc(NC(=O)CCN2C(=O)c3ccccc3C2=O)c(C(=O)OCC)c1C,"16.4 µM [rising, partial curve, poor fit]",
O=C(O)c1cc2c(cc1NC(=O)c1ccccc1OC(F)F)OCCCO2,"35.5 µM [falling, single point]",
COc1ccc(-c2csc(Nc3cccc(C)n3)n2)cc1,"14.1 µM [falling, single point]",
Cc1cccc(NC(=O)COc2ccc(Br)cc2)n1,"23.1 µM [falling, partial curve, poor fit]",
Cc1cccc(-c2noc(CCCC(=O)N3CCOCC3)n2)c1,"10.3 µM [rising, partial curve, poor fit]","4.11 µM [rising, full curve, poor fit]"
CCOc1ccccc1N(CC(=O)Nc1ccccc1F)S(=O)(=O)c1ccccc1,"35.5 µM [falling, single point]",
Cc1ccc(Oc2cc([N+](=O)[O-])cc3c2C(=O)Nc2ccccc2O3)cc1,"11.6 µM [rising, partial curve]",
O=S(=O)(c1ccc(-c2nc3ccccc3s2)cc1)N1CCCC1,"0.92 µM [rising, partial curve]",
Cc1cccc(C(=O)NNS(=O)(=O)c2ccc(F)cc2)c1,"8.91 µM [falling, partial curve]",
Cc1ccc2nc(N/N=C\c3ccc([N+](=O)[O-])o3)nc(-c3ccccc3)c2c1,"0.184 µM [falling, full curve, poor fit]",

# As entered above:
# In AC50 [1], CC(=O)Oc1ccccc1C1=NN(C(=O)/C=C/c2ccccc2)C(c2ccccc2)C1 (stereo not drawn) is entered as 14.6 µM [rising, single point]
# In AC50 [1], N#C/C(=C\Nc1ccccc1O)c1nc2ccccc2o1 is entered as 32.6 µM [falling, single point]

# Later entries:

SMILES,AC50 [1],AC50 [2]
COc1cc(/C=N/n2cnnc2)ccc1OC(=O)c1cccnc1,"0.82 µM [falling, full curve, poor fit]",
CC(C)(CO)Cc1cc(C(C)(C)C)c(O)c(C(C)(C)C)c1,"18.4 µM [rising, single point]",
CSc1ccccc1NC(=S)NC1CCCC1,"7.08 µM [rising, full curve, poor fit]",
C=CCn1c(=O)c2c3c(sc2n2c(Nc4ccc(OC)cc4)nnc12)CCCC3,"9.2 µM [falling, partial curve, poor fit]",
CN(C)c1ccc(-c2nnc(-c3cccnc3)o2)cc1,"12.6 µM [falling, partial curve, poor fit]",
O=C1CC(N2CCN(c3ccccc3)CC2)C(=O)N1c1ccc2c(c1)OCO2 (stereo not drawn),"11.2 µM [rising, partial curve, poor fit]",
Cc1nc(/C(N)=N/OC(=O)c2ccc(Cl)cc2)c(C(F)(F)F)o1,"12.6 µM [falling, partial curve, poor fit]",
O=C(CSc1nc(=O)n2ccccc2n1)Nc1cccc2ccccc12,"8.2 µM [falling, partial curve]",
COc1ccccc1CNCc1cc(=O)oc2c(C)c(C)ccc12,"10 µM [rising, partial curve, poor fit]",
CCCn1c(=S)[nH]c2cc(C(=O)N(CCO)Cc3ccccc3)ccc2c1=O,"3.16 µM [falling, full curve]",
O=C(N1CCOCC1)C1(c2ccccc2)CCCCC1,"25.9 µM [rising, single point]",
CC(C)Cc1nnc(NC(=O)c2cc(-c3ccncc3)nc3ccccc23)s1,"0.0891 µM [rising, full curve, poor fit]",
C#CCN(C)CCCOc1ccc(Cl)cc1Cl,"7.31 µM [rising, partial curve, poor fit]",
Cc1cc(C)n(-c2ccc(C(=O)OCC(=O)N(CC(C)C)C3CCS(=O)(=O)C3)cc2)n1 (stereo not drawn),"17.8 µM [falling, single point]",
CCCC(=O)Nc1ccc(Cl)c(NC(=S)NC(=O)c2ccco2)c1,"16.4 µM [falling, partial curve, poor fit]",
C=CCn1c(-c2ccc(Cl)cc2)c[nH]c1=S,"12.6 µM [falling, partial curve]","25.1 µM [falling, single point]"
Cc1onc(-c2c(F)cccc2Cl)c1C(=O)Nc1cccc(S(=O)(=O)NC2=NCCC2)c1,"6.51 µM [rising, partial curve, poor fit]",
CCOc1ccc2nc(SCC(=O)c3ccc(Cl)s3)sc2c1,"11.6 µM [falling, partial curve, poor fit]",
Cn1c(=O)c2c(nc(Sc3ncccn3)n2Cc2ccc(Cl)cc2)n(C)c1=O,"4.11 µM [falling, single point]",
Cc1cccc(-n2nnnc2SCC(=O)NC2CCCC2)c1,"4.61 µM [rising, full curve, poor fit]",
